# Results: PubChem BioAssay AID2685 (National Center for Advancing Translational Sciences (NCATS), 2010)
# This is one part of the list. These are further read-outs of the screen, such as a control signal, another cell line or another target. No call is given for them. The list favours compounds with an active or inconclusive main result. Potencies come from curve fits of mixed quality, noted in brackets. Where a SMILES comes first, the peptide text is derived from it. [ ]: non-standard residue; d: D form. The star is where a group is joined. ξ: configuration not given here. Boc = CC(C)(C)OC(=O)*; NHBn = c1ccc(CN*)cc1; ξV = CC(C)C(N)C(=O)O
# Experiment: qHTS Assay for Lipid Storage Modulators in Drosophila S3 Cells;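 on cell number change: cells counted by Cell Tracker Red CMTPX staining in the red channel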
# Conditions: BODIPY lipid droplet fluorescence, 18-24 h; for cell number change: measured here: cell count max response, cells fed with added oleic acid
# Summary of the method: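 Laser-scanning cytometry quantifies lipid droplet accumulation (500–530 nm total intensity; droplet/cell object ratio) in oleic acid-fed (400 uM added) Drosophila S3 cells treated with a concentration series. 20 uM Triacsin C defined 100% inhibition.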
# [1] = measured here: lipid fluorescence (Fed channel) AC50, cells fed with added oleic acid
# [2] = measured here: cell number channel AC50, cells fed with added oleic acid
Structure (SMILES),cell number change,AC50 [1],AC50 [2]
CCn1c(SCC(=O)c2cc(C)n(CC3CCCO3)c2C)nc2ccccc21 (centres undefined),-15%,"0.58 µM [rising, full curve, poor fit]",
CC(=O)c1ccc(S(=O)(=O)Nc2ccc(C(=O)N(C)CC(=O)Nc3cccc(C)c3C)cc2)cc1,1.23%,,
COc1cc(S(=O)(=O)N2CCOCC2)cc(C(=O)OCC(=O)NCc2ccco2)c1OC,-2.28%,"0.0366 µM [rising, single point]",
COc1cc(CNC2CCCC2)cc(OC)c1,-12.4%,"0.651 µM [falling, full curve, poor fit]",
COC(=O)c1ccccc1OCC(=O)N1CCN(c2ccc(OC)cc2)CC1,4.16%,,"6.51 µM [rising, partial curve, poor fit]"
C#CCOCCOCCOCCNc1nc(N2CCN(C(=O)CCCCCCCCCCNC(=O)Cn3cc(CCCCCN)nn3)CC2)nc(N2CCN(C(=O)CCCCCCCCCCNC(=O)[C@H](CO)n3cc(CCCCCN)nn3)CC2)n1,-48.5%,"0.164 µM [rising, full curve, poor fit]","23.1 µM [falling, partial curve]"
COC(=O)c1ccccc1NC(=O)Nc1cccs1,24.9%,"29.1 µM [rising, single point]",
CN1C(=O)C(C)(C)c2cc(S(=O)(=O)NCc3ccc(Cl)cc3)ccc21,-5.48%,"23.1 µM [falling, single point]",
CCCC(C(=O)NC1CCCC1)N(C(=O)c1snc(C(N)=O)c1N)c1ccc(OCC)cc1 (centres undefined),-7.39%,"0.58 µM [rising, single point]",
CC(=O)Oc1cc2c(C(=O)NCCCN3CCOCC3)c(C)oc2c2ccccc12,6.02%,"0.116 µM [falling, full curve, poor fit]",
CCCC(=O)N1CCCC(C(=O)c2ccc(OC)c(OC)c2)C1 (centres undefined),18.7%,,
Cc1cccc(OCc2nnc(SCc3nc4cc(C(F)(F)F)ccc4c(=O)[nH]3)o2)c1,-55.3%,"32.6 µM [falling, single point]","18.4 µM [falling, single point]"
CC(=O)NNC(=O)c1nc(-c2ccccc2)c(C)o1,35.4%,"1.16 µM [rising, partial curve, poor fit]","0.116 µM [rising, full curve, poor fit]"
CSc1sc(-c2ccnc(SCCS(C)(=O)=O)n2)c(-c2ccccc2)c1C#N,5.68%,,
CCOc1ccc(Oc2ccccc2NC(=O)CN2C(=O)NC3(CCCC3)C2=O)cc1,-27.3%,,
Cc1nnc(SCC(=O)Nc2ccccc2)n(N)c1=O,19.4%,,
CC(C)(C)NC(=O)CSc1nc2ccccc2n1-c1ccccc1,46.2%,,"2.06 µM [rising, full curve]"
Cc1ccc(CNC(=O)CCNC(=O)N2CCn3c2nc2ccccc23)cc1,4.84%,"0.00411 µM [rising, full curve, poor fit]",

# A section taken from the entries so far:
Structure (SMILES),cell number change,AC50 [1],AC50 [2]
CC(=O)Oc1cc2c(C(=O)NCCCN3CCOCC3)c(C)oc2c2ccccc12,6.02%,"0.116 µM [falling, full curve, poor fit]",
CCCC(=O)N1CCCC(C(=O)c2ccc(OC)c(OC)c2)C1 (centres undefined),18.7%,,

# The list goes on.

Structure (SMILES),cell number change,AC50 [1],AC50 [2]
CC(C)C(NC(=O)CNC(=O)OC(C)(C)C)C(=O)NCc1ccccc1 (stereo not drawn) (Boc-Gly-[ξV]-NHBn),3.1%,,
COCCNC(=O)CSCc1c(F)cccc1Cl,8.02%,"4.61 µM [rising, partial curve, poor fit]",
Cc1cccc(-c2sc(Nc3ccccc3)n[n+]2-c2ccccc2)c1,3.96%,"6.51 µM [falling, single point]","6.51 µM [falling, single point]"
O=C(Nc1ccccc1C(=O)Nc1nnc(C(F)(F)F)s1)c1ccccc1Cl,-57.9%,"29.1 µM [falling, single point]","20.6 µM [falling, single point]"
CS(=O)(=O)c1ccc(C(=O)N2CCN(Cc3ccccc3)CC2)cc1,12.5%,"6.51 µM [falling, single point]",
CCCCC1C(=O)N(c2ccccc2)N(c2ccccc2)C1=O,-12.7%,"0.103 µM [falling, full curve, poor fit]",
Cc1cccc(C(=O)OCC(=O)NCC2COc3ccccc3O2)c1 (centres undefined),6.71%,"0.58 µM [rising, single point]",
COc1ccccc1C(NC(=O)CC(C)C)c1c(O)ccc2ccccc12 (centres undefined),-40.4%,"29.1 µM [falling, single point]","14.6 µM [falling, single point]"
CCCCn1c(-c2ccc([N+](=O)[O-])cc2)n[nH]c1=S,-13.4%,"11.6 µM [rising, partial curve]",
Cc1ccc(NC(=O)C(c2ccccc2)N2CCN(C(=O)c3ccco3)CC2)cc1 (centres undefined),-13.2%,"29.1 µM [falling, single point]",
Cc1ccc(S(=O)(=O)N2CCC(C(=O)N[C@@H](C)C(=O)Nc3ccc4c(c3)OCO4)CC2)cc1,-25.4%,,
NS(=O)(=O)c1ccc2c(c1)C(=NO)c1cc(S(N)(=O)=O)ccc1-2,-1.76%,"16.4 µM [rising, partial curve]",
CC(C)OC(=O)CSc1nc(N)c(C#N)c(-c2ccco2)c1C#N,-47.1%,"13 µM [falling, partial curve]","13 µM [falling, partial curve]"
Cc1ccc(-n2nc3c(N4CCC(C(=O)NCCc5ccccc5C)CC4)nnc(C)c3c2C)cc1,15.1%,"2.91 µM [rising, single point]",
COc1ccc(CCOC(=O)c2cccc(NC(C)=O)c2)cc1,30.1%,"0.731 µM [falling, single point]","14.6 µM [rising, single point]"
O=C(COC(=O)Cn1cnc2ccccc21)NCCCc1ccccc1,106%,"16.4 µM [rising, partial curve]",
C=CCn1c(COc2ccc3c(c2)CCCC3)nnc1SCC(=O)Nc1cccc(SC)c1,-13%,"29.1 µM [falling, single point]",
Cc1cc(SCC(=O)N/N=C/c2ccc(O)cc2O)nc2ccccc12,-45.3%,"29.1 µM [falling, single point]","18.4 µM [falling, single point]"
